{
  "sequences": {"note": "Sequences of proteins named here, by UniProt entry; tags and fusion partners are left off.", "UniProt P42227": "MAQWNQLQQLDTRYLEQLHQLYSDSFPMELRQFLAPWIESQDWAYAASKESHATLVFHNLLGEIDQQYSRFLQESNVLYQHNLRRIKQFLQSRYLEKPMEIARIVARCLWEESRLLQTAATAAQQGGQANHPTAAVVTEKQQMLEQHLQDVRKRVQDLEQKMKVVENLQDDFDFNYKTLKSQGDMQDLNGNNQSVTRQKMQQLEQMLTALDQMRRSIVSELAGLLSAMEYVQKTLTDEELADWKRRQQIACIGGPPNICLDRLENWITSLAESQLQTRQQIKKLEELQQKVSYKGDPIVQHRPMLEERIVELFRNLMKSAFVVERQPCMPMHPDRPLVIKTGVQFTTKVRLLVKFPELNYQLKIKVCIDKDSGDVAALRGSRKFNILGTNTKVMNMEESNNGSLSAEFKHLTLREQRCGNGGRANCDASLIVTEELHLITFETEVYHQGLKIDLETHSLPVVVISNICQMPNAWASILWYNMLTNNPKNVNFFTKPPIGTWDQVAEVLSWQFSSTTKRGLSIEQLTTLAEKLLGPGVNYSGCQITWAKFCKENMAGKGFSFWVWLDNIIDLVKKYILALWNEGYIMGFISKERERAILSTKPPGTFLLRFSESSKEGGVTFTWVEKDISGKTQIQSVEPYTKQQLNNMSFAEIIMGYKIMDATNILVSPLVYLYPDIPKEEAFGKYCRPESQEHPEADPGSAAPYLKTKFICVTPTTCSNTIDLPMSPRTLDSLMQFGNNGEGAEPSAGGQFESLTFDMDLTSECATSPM"},
  "source": "paper PMC11221690",
  "binders": {"B1": {"name": "Histone demethylase JMJD2D (protein, UniProt Q3U2K5 1-510)", "chain": "MKTKSTCAQNPNCSIMIFRPTKEEFNDFDKYIAYMESQGAHRAGLAKVIPPKEWRARQSYDNISNILIATPLQQVVSGQAGVFTQYHKKKKGMTVGEYRELANSKKYQTPPHLDFEDLERKYWKNRLYESPIYGADVSGSLFDGKTQQWNVGHLGTIQDLLEQECGIVIEGVNTPYLYFGMWKTTFAWHTEDMDLYSINYLHFGQPKTWYAVPPEHGRRLERLARELFPGSSQGCQAFLRHKVALISPTVLKENGIPFGRITQEAGEFMVTFPYGYHAGFNHGFNCAEAINFATPRWIDYGKVASQCSCGEARVSFSMDAFVRILQPERYELWKRGQDQAVVDHTETMVSTSQELTTRRVTKAPRKTWGLKRLRLRQVSRSLLPIATVSNVPCNMQVCHTSRQPSDVKGDDVQKSDSARASPHPLSLPSSGHMSTRRCSLGRRPCELGAQESSNGAPVKRQLPAGRDDTSPSPELQPQAVSGDLIVDSGLVNPGPQHLMTASEGGLTSDP"}},
  "biological_target": "STAT3 (mouse (endogenous in CMT93)) (UniProt P42227)",
  "test": "co-IP; CMT93 cell supernatants immunoprecipitated with 2 ug anti-JMJD2D, anti-STAT3 or control IgG, rotation overnight at 4°C, then western blot; cells without or with heat-killed C. rodentium treatment",
  "note": "Results are given in words; binding and its absence hold for the method and conditions named. Binding seen in cells or lysates may run through a third protein. Some binding calls cover weakened binding; strength is not graded here. Sequences can lack the tags named with a protein.",
  "data": [
    {"binder": "B1", "values": [
      {"measurement": "binding", "result": "binds"}
    ]}
  ]
}
